No constants are given. Whether binding was seen depends on the method and setting. For some assays here: A result given as binding can be weak or reduced; the word gives no strength. Tags and fused reporters may be left off the sequences shown.
Columns and labels:
Test in all cases: two-hybrid; yeast AH109 with AD-ABR1 and BD-CIPK3.1, BD-CIPK3.2, BD-CIPK3.3, BD-CIPK3.4 or CIPK3K in pGBT9.BS; spot dilution on SD-HLW + 0.1 mM 3AT and SD-HLW + 0.25 mM 3AT; also ONPG-based beta-galactosidase assay
[1] = biological target: BD-CIPK3.1 (CBL-interacting protein kinase 3, splice variant CIPK3.1) (Arabidopsis thaliana)
[2] = biological target: BD-CIPK3.2 (CBL-interacting protein kinase 3, splice variant CIPK3.2) (Arabidopsis thaliana)
[3] = biological target: BD-CIPK3.3 (CBL-interacting protein kinase 3, splice variant CIPK3.3) (Arabidopsis thaliana)
[4] = biological target: BD-CIPK3.4 (CBL-interacting protein kinase 3, splice variant CIPK3.4) (Arabidopsis thaliana) (UniProt Q2V452)
[5] = biological target: CIPK3K (kinase domain of CIPK3, without regulatory domain) (Arabidopsis thaliana)

Protein sequences, listed by entry. Tags and fused reporters are not part of them. Lines headed by an entry give the natural chain unless they say otherwise; changes in a name come on top.
UniProt Q2V452: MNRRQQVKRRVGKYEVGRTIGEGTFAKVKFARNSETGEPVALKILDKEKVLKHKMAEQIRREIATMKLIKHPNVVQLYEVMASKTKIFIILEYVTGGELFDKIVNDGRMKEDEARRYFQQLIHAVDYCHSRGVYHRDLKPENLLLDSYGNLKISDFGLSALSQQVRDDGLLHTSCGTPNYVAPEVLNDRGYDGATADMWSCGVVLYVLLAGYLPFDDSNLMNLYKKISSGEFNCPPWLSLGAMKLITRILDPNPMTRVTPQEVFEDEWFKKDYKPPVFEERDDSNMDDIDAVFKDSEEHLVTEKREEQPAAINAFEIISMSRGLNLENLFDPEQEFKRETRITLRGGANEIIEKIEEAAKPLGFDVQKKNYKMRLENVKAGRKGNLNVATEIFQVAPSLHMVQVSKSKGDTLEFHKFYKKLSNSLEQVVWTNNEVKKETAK

B1: AD-ABR1 (AP2-domain containing transcription factor ABR1) (protein, UniProt Q9FGF8 1-391)
chain: MCVLKVANQEDNVGKKAESIRDDDHRTLSEIDQWLYLFAAEDDHHRHSFPTQQPPPSSSSSSLISGFSREMEMSAIVSALTHVVAGNVPQHQQGGGEGSGEGTSNSSSSSGQKRRREVEEGGAKAVKAANTLTVDQYFSGGSSTSKVREASSNMSGPGPTYEYTTTATASSETSSFSGDQPRRRYRGVRQRPWGKWAAEIRDPFKAARVWLGTFDNAESAARAYDEAALRFRGNKAKLNFPENVKLVRPASTEAQPVHQTAAQRPTQSRNSGSTTTLLPIRPASNQSVHSQPLMQSYNLSYSEMARQQQQFQQHHQQSLDLYDQMSFPLRFGHTGGSMMQSTSSSSSHSRPLFSPAAVQPPPESASETGYLQDIQWPSDKTSNNYNNSPSS
binding [1]: binds
binding [2]: binds
binding [3]: no binding
binding [4]: no binding
binding [5]: no binding

— paper PMC5705611
